From PMC5359460
No constants are given. Whether binding was seen depends on the method and setting. Binding seen in cells or lysates may run through a third protein. Some binding calls cover weakened binding; strength is not graded here. Values belong to the molecule of their own block, whether it stands above or below them.

Amino acid sequences for entries named in this document (tags omitted).
UniProt Q61831: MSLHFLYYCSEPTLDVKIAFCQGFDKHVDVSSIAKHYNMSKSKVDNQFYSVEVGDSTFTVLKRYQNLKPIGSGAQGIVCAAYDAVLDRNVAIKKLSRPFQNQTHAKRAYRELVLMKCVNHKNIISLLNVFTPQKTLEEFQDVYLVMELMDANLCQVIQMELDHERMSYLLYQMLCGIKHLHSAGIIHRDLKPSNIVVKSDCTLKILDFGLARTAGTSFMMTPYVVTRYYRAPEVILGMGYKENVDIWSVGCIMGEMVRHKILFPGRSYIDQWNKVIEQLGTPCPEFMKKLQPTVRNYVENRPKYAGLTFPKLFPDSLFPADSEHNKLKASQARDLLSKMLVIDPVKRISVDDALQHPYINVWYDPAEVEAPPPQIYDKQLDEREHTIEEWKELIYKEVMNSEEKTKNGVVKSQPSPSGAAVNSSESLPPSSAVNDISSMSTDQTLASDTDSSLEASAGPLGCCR
UniProt P60879: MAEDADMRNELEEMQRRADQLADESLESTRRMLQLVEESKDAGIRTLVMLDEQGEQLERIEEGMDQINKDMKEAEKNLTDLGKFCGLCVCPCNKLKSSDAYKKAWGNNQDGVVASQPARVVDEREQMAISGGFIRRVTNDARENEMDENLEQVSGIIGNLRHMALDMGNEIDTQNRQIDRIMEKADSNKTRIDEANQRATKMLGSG

What was measured:
[1] = target: JNK2 (mouse (endogenous in cortical synaptosomes)) (UniProt Q9WTU6); test: co-IP; precipitation of the single isoforms JNK2 or JNK3 from purified cortical synaptosomal lysates of adult mice (500 ug of total lysate); Syntaxin-2 and Snap25 detected by western blotting
[2] = target: JNK3 (mouse (endogenous in cortical synaptosomes)) (UniProt Q61831); test: as above

binding [1]: binds | binding [2]: binds
Molecule: Snap25 (from UniProt P60879 1-206)

B1: Syntaxin-2 (protein, UniProt Q00262 1-289)
chain: MRDRLPDLTACRTNDDGDTAVVIVEKDHFMDGFFHQVEEIRSSIARIAQHVEDVKKNHSIILSAPNPEGKIKEELEDLDKEIKKTANRIRGKLKSIEQSCDQDENGNRTSVDLRIRRTQHSVLSRKFVDVMTEYNEAQILFRERSKGRIQRQLEITGRTTTDDELEEMLESGKPSIFISDIISDSQITRQALNEIESRHKDIMKLETSIRELHEMFMDMAMFVETQGEMVNNIERNVVNSVDYVEHAKEETKKAIKYQSKARRKKWIIAAVAVAVIAVLALIIGLSVGK
binding [1]: binds | binding [2]: binds
